# Not every detail of the peptide structures is certain; ends, links or a residue may be inferred. Where no end group is shown, it is not given here.
# Legend:
# Type in all cases: cell-based
# [1] = system: Pseudomonas aeruginosa (ATCC 27853); conditions: P. aeruginosa ATCC 27853, MHB, 18 hours at 37° C., mean of three
# Procedure: (§1) The in vitro antimicrobial activities of antimicrobial agents were tested using minimum inhibition concentration (MIC) tests. The MIC value is the lowest concentration of peptide at which the visible growth of test organisms was inhibited and reduced. The test strains herein were E. coli (ATCC 25922), Pseudomonas aeruginosa (ATCC 27853) and Staphylococcus aureus (ATCC 29213).
# (§2) Overnight cultures of the test organisms were diluted to produce an inoculum containing approximately 10^5 colonies in Meuller-Hinton broth (MHB). Peptide solution with different concentrations was added to diluted culture of the test organisms. After 18 hours of incubation at 37° C., the results were assayed for turbidity as an indicator of cell growth. MIC values for the peptides were measured three times at different time points. […] On the other hand, modifications for primary or secondary structures without influencing their activity, such as acetylation, amidation, formylation, hydroxylation, lipid modification, methylation or phosphorylation, were performed herein.
# [2] = system: Staphylococcus aureus (ATCC 29213); conditions: S. aureus ATCC 29213, MHB, 18 hours at 37° C., mean of three
# Procedure: as §1, §2
# E. coli (ATCC 25922) = conditions: E. coli ATCC 25922, MHB, 18 hours at 37° C., mean of three
# Procedure: as §1, §2
substance,measurement,setting,value
"KKWRKWLKWLAKK-NH2 [Pem-2254 L, Lys Lys Trp Arg Lys Trp Leu Lys Trp Leu Ala Lys Lys]",MIC,[1],1.565 µg/mL
same,MIC,[2],3.125 µg/mL
same,MIC,E. coli (ATCC 25922),1.565 µg/mL
